# Measurements taken from PubChem BioAssay AID2283162 (EPA ToxCast).
# Sequences of proteins named here, by UniProt entry; tags and fusion partners are left off.
# UniProt P08069, whole entry, looked up: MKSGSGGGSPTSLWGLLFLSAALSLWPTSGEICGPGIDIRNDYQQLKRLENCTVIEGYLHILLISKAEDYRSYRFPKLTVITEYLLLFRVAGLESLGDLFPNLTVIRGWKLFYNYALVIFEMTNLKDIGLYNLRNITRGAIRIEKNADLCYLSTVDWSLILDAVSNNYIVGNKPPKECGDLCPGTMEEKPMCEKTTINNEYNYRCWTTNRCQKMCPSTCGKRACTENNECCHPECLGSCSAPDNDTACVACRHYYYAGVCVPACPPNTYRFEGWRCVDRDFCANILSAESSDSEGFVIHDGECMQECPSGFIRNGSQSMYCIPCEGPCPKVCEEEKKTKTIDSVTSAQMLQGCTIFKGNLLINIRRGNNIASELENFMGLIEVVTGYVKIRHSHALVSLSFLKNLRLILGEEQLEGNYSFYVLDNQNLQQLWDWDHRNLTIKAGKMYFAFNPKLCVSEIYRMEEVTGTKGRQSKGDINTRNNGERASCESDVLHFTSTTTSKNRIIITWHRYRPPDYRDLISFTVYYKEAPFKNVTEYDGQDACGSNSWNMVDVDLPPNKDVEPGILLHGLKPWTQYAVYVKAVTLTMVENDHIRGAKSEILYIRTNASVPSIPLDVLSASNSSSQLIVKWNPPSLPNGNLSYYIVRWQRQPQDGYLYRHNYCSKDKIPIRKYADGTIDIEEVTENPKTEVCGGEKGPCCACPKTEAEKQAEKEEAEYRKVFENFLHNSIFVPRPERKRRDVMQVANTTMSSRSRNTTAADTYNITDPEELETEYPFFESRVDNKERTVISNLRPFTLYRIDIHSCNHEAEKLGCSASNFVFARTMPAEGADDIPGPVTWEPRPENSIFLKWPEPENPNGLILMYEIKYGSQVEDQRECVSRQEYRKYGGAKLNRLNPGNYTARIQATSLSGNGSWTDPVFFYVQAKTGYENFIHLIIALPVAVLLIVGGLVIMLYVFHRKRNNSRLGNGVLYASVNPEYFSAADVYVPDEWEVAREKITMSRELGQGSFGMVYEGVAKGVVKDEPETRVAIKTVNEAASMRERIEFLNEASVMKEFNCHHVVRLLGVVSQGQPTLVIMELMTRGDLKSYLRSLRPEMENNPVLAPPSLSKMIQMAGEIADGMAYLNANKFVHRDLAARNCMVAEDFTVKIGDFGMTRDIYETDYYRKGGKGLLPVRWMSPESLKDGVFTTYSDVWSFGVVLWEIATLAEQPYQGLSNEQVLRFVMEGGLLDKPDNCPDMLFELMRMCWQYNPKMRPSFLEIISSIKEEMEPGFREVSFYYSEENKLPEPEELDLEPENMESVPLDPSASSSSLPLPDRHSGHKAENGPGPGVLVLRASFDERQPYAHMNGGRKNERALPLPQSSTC
# Where “and” joins values, the source holds several entries; their conditions need not be identical. Equal values may be shown once. This list was built around the results that the source calls inconclusive (neither active nor inactive); the mix of calls is not that of the screen. Potencies beside an inconclusive call are fits to weak or partial responses and may not hold up. Calls of active or inactive are those of the source. The calls were made as follows: active = hit-call score of the fitted dose curve at least 0.9, where 1 is the maximum; inconclusive = response in the unintended direction; inactive = score below 0.9.
# Target: human Insulin-like Growth Factor 1 Receptor (IGF1R), IGF1R (gene 3480) (UniProt P08069)
# Test: NVS_ENZ_hIGF1R: NovaScreen (NVS) Enzymatic Assay for human Insulin-like Growth Factor 1 Receptor (IGF1R)
# Method: NVS_ENZ_hIGF1R is a biochemical, single-readout assay that uses extracted gene-proteins in a cell-free assay. Measurements were taken 1 hour after chemical dosing in a 384-well plate.NVS_ENZ_hIGF1R is one of one assay component(s) measured or calculated from the NVS_ENZ_hIGF1R assay. It is designed to make measurements of enzyme activity, a form of enzyme reporter, as detected with fluorescence intensity signals by Fluorescence and electrophoretic mobility shift technology.Data from the assay component NVS_ENZ_hIGF1R was analyzed into 1 assay endpoint. This assay endpoint, NVS_ENZ_hIGF1R, was analyzed in the positive analysis fitting direction relative to DMSO as the negative control and baseline of activity. Using a type of enzyme reporter, loss-of-signal activity can be used to understand changes in the enzymatic activity as they relate to the gene IGF1R. Furthermore, this assay endpoint can be referred to as a primary readout, because this assay has produced multiple assay endpoints where this one serves a enzymatic activity function. To generalize the intended target to other relatable targets, this assay endpoint is annotated to the kinase intended target family, where the subfamily is receptor tyrosine kinase.
# Binding assays used specific radioligands (tritiated, iodinated) with non-radioactive competitive displacement ligands in agonist or antagonist protocols (as indicated) and various reference compounds and inhibitors to titrate specific binding to receptors and transporters. Most enzyme assays (CYPs, kinases, phosphatases, proteases, HDACs) used recombinant protein and specific substrates (fluorescence mostly, some colorimetric and radioactive) and inhibitors, followed by a biochemical separation of substrate and product. All assays for the biochemical HTS were initially run in duplicate at a single concentration (10 uM for CYP450 assays and 25 uM for all others). Assay-chemical combinations meeting a pre-defined threshold (e.g., 30% inhibition and other criteria defined below) were then run in singleton concentration-response format with maximum concentration of 20 uM for CYPs and 50 uM for all others. Each assay was run with positive and negative controls, and concurrent controls on every plate. The follow-up (secondary) screen tested active chemical-pairs in concentration series, as well as a few additional assays not tested in the primary screen, some selected negative inactives, and several cases re-run in the concentration series for confirmatory purposes.
Structure (SMILES),AC50,outcome
O=C1NC(=O)C(c2ccccc2)(c2ccccc2)N1,inconclusive: 0.00262 µM,
O=C1c2c(O)cccc2Cc2cccc(O)c21,inconclusive: 0.542 µM,
Oc1ccc(O)cc1,inconclusive: 46.7 µM,
OCCOCCOCCO,inconclusive: 25 µM,
S=C(S)NCCNC(=S)S.[Mn+2].[S-]C([S-])=NCCN=C([S-])[S-].[Zn+2],inconclusive: 1.83 µM and inconclusive: 1.9 µM,
S=C([S-])NCCNC(=S)[S-].[Mn+2],inconclusive: 10.6 µM,
CN(C)C(=O)NC1(c2ccccc2)CCN(CCC[C@]2(c3ccc(Cl)c(Cl)c3)CCCN(C(=O)c3ccccc3)C2)CC1,,inactive
O=C(O)CC(O)(CC(=O)O)C(=O)O,active: 5.18 µM,
CCCCC=O,inconclusive: 25 µM,
CCCCc1ccc2c(n1)[C@@H](c1ccc(OC)cc1C[C@H](C)C(=O)O)[C@H](C(=O)O)[C@H]2c1ccc2c(c1)OCO2,,inactive
O=C(O)C1(C(=O)Nc2ccc(Cl)cc2Cl)CC1,inconclusive: 19.4 µM,
COc1cc(C(=O)NC2CCN(C)CC2)ccc1Nc1ncc2c(n1)N(C1CCCC1)CC(F)(F)C(=O)N2C,active: 23.2 µM,

# Single records, from the list above.
# `OCCOCCOCCO` in the list: AC50: inconclusive: 25 µM
# `CN(C)C(=O)NC1(c2ccccc2)CCN(CCC[C@]2(c3ccc(Cl)c(Cl)c3)CCCN(C(=O)c3ccccc3)C2)CC1` in the list: outcome: inactive
